Experiment [1] concerns the target T1, Che-1/AATF (human (endogenous in Kms27 and RPMI8226)) (UniProt Q9NY61).
T1 sequence: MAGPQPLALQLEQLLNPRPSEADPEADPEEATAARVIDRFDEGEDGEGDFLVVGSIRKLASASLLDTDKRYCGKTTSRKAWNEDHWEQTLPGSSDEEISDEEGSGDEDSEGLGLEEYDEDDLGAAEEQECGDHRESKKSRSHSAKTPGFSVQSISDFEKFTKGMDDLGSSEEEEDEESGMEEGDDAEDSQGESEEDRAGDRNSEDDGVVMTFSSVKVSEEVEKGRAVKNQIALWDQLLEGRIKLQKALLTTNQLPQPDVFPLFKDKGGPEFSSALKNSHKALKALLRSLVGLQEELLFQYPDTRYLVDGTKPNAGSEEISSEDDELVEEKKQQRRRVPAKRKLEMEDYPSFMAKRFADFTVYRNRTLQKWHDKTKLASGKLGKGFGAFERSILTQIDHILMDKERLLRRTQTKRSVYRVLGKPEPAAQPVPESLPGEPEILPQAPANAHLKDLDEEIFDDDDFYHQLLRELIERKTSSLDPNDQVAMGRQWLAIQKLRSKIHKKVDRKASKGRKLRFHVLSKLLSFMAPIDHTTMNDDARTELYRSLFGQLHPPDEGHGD
In words: co-IP.

Experiment [2] addresses T1, Che-1/AATF (human (endogenous in Kms27 and RPMI8226)). In words: proximity ligation.
Experiment [3] deals with T2, SFPQ (human (endogenous in Kms27 and RPMI8226)) (UniProt P23246).
T2 sequence: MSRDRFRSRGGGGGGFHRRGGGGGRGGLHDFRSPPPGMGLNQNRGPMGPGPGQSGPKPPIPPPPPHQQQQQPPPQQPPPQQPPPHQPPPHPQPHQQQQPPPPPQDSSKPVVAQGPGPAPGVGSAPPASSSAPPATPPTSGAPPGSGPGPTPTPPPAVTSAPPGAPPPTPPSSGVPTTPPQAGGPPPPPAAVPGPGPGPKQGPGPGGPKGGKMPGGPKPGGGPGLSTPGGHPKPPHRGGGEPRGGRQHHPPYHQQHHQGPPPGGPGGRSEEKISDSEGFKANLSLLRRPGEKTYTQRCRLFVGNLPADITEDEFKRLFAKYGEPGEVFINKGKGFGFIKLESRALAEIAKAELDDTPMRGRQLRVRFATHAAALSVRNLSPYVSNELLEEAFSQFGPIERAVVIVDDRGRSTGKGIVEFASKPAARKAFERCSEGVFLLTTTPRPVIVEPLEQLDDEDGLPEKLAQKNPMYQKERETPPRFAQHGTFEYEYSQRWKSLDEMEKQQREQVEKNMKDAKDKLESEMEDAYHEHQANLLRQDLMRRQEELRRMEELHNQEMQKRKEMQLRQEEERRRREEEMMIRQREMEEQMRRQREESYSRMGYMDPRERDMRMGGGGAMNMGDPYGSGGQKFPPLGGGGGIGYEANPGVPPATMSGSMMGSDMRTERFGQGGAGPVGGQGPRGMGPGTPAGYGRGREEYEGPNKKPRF
In words: co-IP.

Substrate in the experiment “co-IP”: T3, NONO (human (endogenous in Kms27 and RPMI8226)) (UniProt Q15233)
T3 sequence: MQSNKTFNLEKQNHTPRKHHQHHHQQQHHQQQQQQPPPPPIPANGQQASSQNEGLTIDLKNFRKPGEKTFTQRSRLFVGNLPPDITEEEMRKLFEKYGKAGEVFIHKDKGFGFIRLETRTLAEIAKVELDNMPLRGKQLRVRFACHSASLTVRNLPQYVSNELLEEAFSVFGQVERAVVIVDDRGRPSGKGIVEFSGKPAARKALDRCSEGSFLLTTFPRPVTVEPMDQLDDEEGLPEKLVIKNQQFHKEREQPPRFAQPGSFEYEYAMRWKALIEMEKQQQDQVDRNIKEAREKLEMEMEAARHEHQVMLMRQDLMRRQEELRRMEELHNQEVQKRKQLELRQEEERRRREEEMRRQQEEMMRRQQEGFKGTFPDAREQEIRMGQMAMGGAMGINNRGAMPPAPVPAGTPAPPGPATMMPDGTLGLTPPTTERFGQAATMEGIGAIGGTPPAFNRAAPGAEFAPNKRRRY
In words: co-IP.

Results are given in words; binding and its absence hold for the method and conditions named. Binding seen in cells or lysates may run through a third protein. Some binding calls cover weakened binding; strength is not graded here.

B1: NONO (protein, UniProt Q15233 1-471)
chain: MQSNKTFNLEKQNHTPRKHHQHHHQQQHHQQQQQQPPPPPIPANGQQASSQNEGLTIDLKNFRKPGEKTFTQRSRLFVGNLPPDITEEEMRKLFEKYGKAGEVFIHKDKGFGFIRLETRTLAEIAKVELDNMPLRGKQLRVRFACHSASLTVRNLPQYVSNELLEEAFSVFGQVERAVVIVDDRGRPSGKGIVEFSGKPAARKALDRCSEGSFLLTTFPRPVTVEPMDQLDDEEGLPEKLVIKNQQFHKEREQPPRFAQPGSFEYEYAMRWKALIEMEKQQQDQVDRNIKEAREKLEMEMEAARHEHQVMLMRQDLMRRQEELRRMEELHNQEVQKRKQLELRQEEERRRREEEMRRQQEEMMRRQQEGFKGTFPDAREQEIRMGQMAMGGAMGINNRGAMPPAPVPAGTPAPPGPATMMPDGTLGLTPPTTERFGQAATMEGIGAIGGTPPAFNRAAPGAEFAPNKRRRY
Take B1: the binding result in experiment [1] and in experiment [2] was “binds” in each case.

B2: Che-1/AATF (protein, UniProt Q9NY61 1-560)
chain: MAGPQPLALQLEQLLNPRPSEADPEADPEEATAARVIDRFDEGEDGEGDFLVVGSIRKLASASLLDTDKRYCGKTTSRKAWNEDHWEQTLPGSSDEEISDEEGSGDEDSEGLGLEEYDEDDLGAAEEQECGDHRESKKSRSHSAKTPGFSVQSISDFEKFTKGMDDLGSSEEEEDEESGMEEGDDAEDSQGESEEDRAGDRNSEDDGVVMTFSSVKVSEEVEKGRAVKNQIALWDQLLEGRIKLQKALLTTNQLPQPDVFPLFKDKGGPEFSSALKNSHKALKALLRSLVGLQEELLFQYPDTRYLVDGTKPNAGSEEISSEDDELVEEKKQQRRRVPAKRKLEMEDYPSFMAKRFADFTVYRNRTLQKWHDKTKLASGKLGKGFGAFERSILTQIDHILMDKERLLRRTQTKRSVYRVLGKPEPAAQPVPESLPGEPEILPQAPANAHLKDLDEEIFDDDDFYHQLLRELIERKTSSLDPNDQVAMGRQWLAIQKLRSKIHKKVDRKASKGRKLRFHVLSKLLSFMAPIDHTTMNDDARTELYRSLFGQLHPPDEGHGD
Regarding B2, the binding result (in experiment [3]; in the experiment “co-IP”) was “binds” in each case.

These data come from publication doi:10.1101/2021.08.04.455054.
